{"source": "PubChem BioAssay AID504467", "about": "(National Center for Advancing Translational Sciences (NCATS), 2011)", "note": "Hit rate of the full screen: of about 330,000 compounds, about 7,700 (2.3%) were called active. The shares of active, inactive and inconclusive entries below differ from those in the screen. The call rests on the fitted dose curve; in most records, active means well fitted inhibition curve with a large enough effect; inconclusive means small, poorly fitted or top-dose-only effect, or effect the other way; inactive means flat fitted curve, though single readings scatter. Where the call is inconclusive, the potency comes from a doubtful curve fit. Potency means the concentration at half of the fitted maximal effect."}
{"test": "qHTS screen for small molecules that inhibit ELG1-dependent DNA repair in human embryonic kidney (HEK293T) cells expressing luciferase-tagged ELG1; further: nearly all actives have a fitted effect of over 55% in size", "conditions": "HEK293T ELG1-luciferase reporter, luminescence, 16 h, DNA damage induced by 5-fluorouridine; series mostly up to 46.1 µM", "method_in_brief": "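DMSO vehicle served as the neutral condition. Each well held 2,000 cells given 5-fluorouridine plus compound; after 16 hr at 37 °C/5% CO2, ONE-Glo was added and luciferase measured 30 min later.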"}
{"smiles": "COCCn1c(N)c(C(=O)Nc2sc3c(c2C(=O)OC)CCCC3)c2nc3ccccc3nc21", "Potency": "inactive"}
{"smiles": "Cn1ccnc1C(=O)c1cccc([N+](=O)[O-])c1", "Potency": "inconclusive: 29.1 µM [activator, single point]"}
{"smiles": "C/C(=N\\NC(=O)C12CCC(C)(C(=O)O1)C2(C)C)c1ccccc1O", "note": "(configuration not stated)", "Potency": "active: 20.6 µM"}
{"smiles": "O=C(N/N=C/c1cccs1)c1cc(C2CC2)nc2ccccc12", "Potency": "inactive"}
{"smiles": "COc1ccc2oc(C(=O)OCC(=O)NC(=O)c3ccccc3)c(C)c2c1", "Potency": "inactive"}
{"smiles": "NC(=O)OCC(O)COc1ccc(Cl)cc1", "note": "(configuration not stated)", "Potency": "inconclusive: 4.47 µM [activator, full curve, poor fit]"}
{"smiles": "c1ccc(-n2ncc3c2ncn2c(C4CCCCC4)nnc32)cc1", "Potency": "inconclusive: 6.51 µM [activator, single point]"}
{"smiles": "Cc1ccc2nc(-c3ccc(NC(=O)Cc4cccs4)cc3)[nH]c2c1", "Potency": "inconclusive: 1.84 µM [activator, full curve]"}
{"smiles": "N#Cc1ccsc1NC(=O)COC(=O)c1ccc2ccccc2c1", "Potency": "inconclusive: 20.6 µM [activator, partial curve]"}
{"smiles": "CC(C)c1ccc(NC(=O)c2ccccc2NC(=O)C2CC=CCC2C(=O)O)cc1", "note": "(configuration not stated)", "Potency": "inconclusive: 20.6 µM [activator, partial curve]"}
{"smiles": "COc1ccc(NC(=O)CCNC(=O)Cn2ccc3ccccc3c2=O)cc1Cl", "Potency": "inactive"}
{"smiles": "Nc1nonc1-n1nnc(C(=O)N/N=C/c2cccc(Cl)c2)c1-c1cccs1", "Potency": "inconclusive: 23.1 µM [inhibitor, partial curve]"}
{"smiles": "CC(C)NS(=O)(=O)c1ccc(CCC(=O)N2CCc3ccccc3C2)cc1", "Potency": "inconclusive: 20.6 µM [inhibitor, single point]"}
{"smiles": "COc1ccc(NC2=CC(=O)CC(C)(C)C2)cc1OC", "Potency": "inactive"}
{"smiles": "CCOc1ccc(C(=O)Nc2cccc(-c3cc4ccccc4oc3=O)c2)cc1[N+](=O)[O-]", "Potency": "inconclusive: 13 µM [inhibitor, partial curve]"}
{"smiles": "Nc1nnc(-c2ccc(Cl)c([N+](=O)[O-])c2)s1", "Potency": "inactive"}
{"smiles": "CCn1c2ccccc2c2nc3cc(S(=O)(=O)N4CCOCC4)ccc3nc21", "Potency": "inconclusive: 20.6 µM [inhibitor, single point]"}
{"smiles": "CC(/C=C/c1ccco1)=N\\NC(=O)c1cccc(Cl)c1", "Potency": "inactive"}
{"smiles": "COc1ccc(OCCOC(=O)C(C)NS(=O)(=O)c2ccc(NC(C)=O)cc2)cc1", "note": "(configuration not stated)", "Potency": "inconclusive: 25.9 µM [activator, single point]"}
{"smiles": "Cc1ccc(S(=O)(=O)NCCC(=O)Nc2cccc(S(=O)(=O)N3CCCC3)c2)cc1C", "Potency": "inconclusive: 18.3 µM [inhibitor, partial curve, poor fit]"}
{"smiles": "CCC(C)N(CC(=O)Nc1cccc(C)c1C)C(=O)CCl", "note": "(configuration not stated)", "Potency": "active: 4.61 µM"}
{"smiles": "COc1ccc(CCNC(=O)C(=O)NCC2OCCCN2S(=O)(=O)c2cc(C)ccc2C)cc1", "note": "(configuration not stated)", "Potency": "inconclusive: 25.9 µM [inhibitor, partial curve, poor fit]"}
{"smiles": "CC(=O)c1c(OC(=O)c2cccc(Cl)c2)c2ccccc2n1C", "Potency": "inconclusive: 6.51 µM [inhibitor, partial curve]"}
{"smiles": "CCC(C)NC(=O)COC(=O)c1csc2c1CCCC2", "note": "(configuration not stated)", "Potency": "inactive"}
{"smiles": "COc1cccc(NC(=O)Cn2c3ccc(F)cc3c3nc4n(c(=O)c32)CCCS4)c1", "Potency": "inconclusive: 32.6 µM [inhibitor, single point]"}
{"smiles": "Cc1oc(C(=O)Nc2ccc(C(=O)O)cc2)cc1COc1ccccc1", "Potency": "inconclusive: 20.6 µM [activator, partial curve, poor fit]"}
{"smiles": "COc1cc(CCC(=O)OCC(=O)Nc2ncc(Cl)cc2Cl)cc(OC)c1OC", "Potency": "inactive"}
{"smiles": "Cc1ccc(NC(=O)COc2ccccc2C(=O)Nc2ccccc2)cc1Cl", "Potency": "active: 16.4 µM"}
{"smiles": "CCn1c(SCC(=O)N/N=C(\\C)c2ccncc2)nnc1-c1ccc(C)cc1", "Potency": "inconclusive: 18.3 µM [inhibitor, single point]"}
{"smiles": "CCc1ccc(NC(=O)Cn2cc([N+](=O)[O-])nc2C)cc1", "Potency": "inactive"}
{"smiles": "CCOc1ccccc1C1C(C#N)=C(N)Nc2onc(-c3ccccc3)c21", "note": "(configuration not stated)", "Potency": "inconclusive: 11.6 µM [activator, partial curve, poor fit]"}
{"smiles": "CC(Nc1cc(C)cc(C)c1)=[N+](C)CCNS(=O)(=O)c1ccc(Cl)cc1", "Potency": "inactive"}
{"smiles": "Cc1nc2ccc(Br)cn2c1C(=O)N/N=C\\c1ccccc1[N+](=O)[O-]", "Potency": "inactive"}
{"smiles": "CC(=O)N1CCc2cc(Br)cc(S(=O)(=O)N3CCC(C(=O)O)CC3)c21", "Potency": "inactive"}
{"smiles": "CCOc1ccccc1NS(=O)(=O)c1cn(C)nc1C", "Potency": "inactive"}
{"smiles": "S=C(Nc1ccc(Cl)cc1)N1CCCC1", "Potency": "inactive"}
{"smiles": "Cc1cc(C)nc(Nc2nc3ccccc3s2)n1", "Potency": "inconclusive: 3.66 µM [activator, full curve]"}
{"smiles": "COC(=O)/C(=C\\c1cccnc1)NC(=O)c1ccc(OCc2ccccc2)cc1", "Potency": "inconclusive: 25.9 µM [inhibitor, partial curve, poor fit]"}
{"smiles": "O=C(COC(=O)c1cc(S(=O)(=O)N2CCOCC2)ccc1F)NCCc1ccc(F)cc1", "Potency": "inactive"}
{"smiles": "CCSc1ccc([C@@H]2[C@@H]3C(=O)N(CC)C(=O)[C@@H]3[C@]3(C(=O)OC)CCCCN23)cc1", "Potency": "inactive"}
{"smiles": "O=C(CSc1cccc[n+]1[O-])c1ccc(Cl)s1", "Potency": "inconclusive: 23.1 µM [activator, partial curve, poor fit]"}
{"smiles": "CC1Oc2ccccc2N(Cc2cccnc2)C1=O", "note": "(configuration not stated)", "Potency": "inactive"}
{"smiles": "Cc1ccc(S(=O)(=O)N2C[C@@H]3CCCC[C@@H]3[C@@H](C)[C@H]2c2cn(Cc3ccccc3)c3ncccc23)cc1", "Potency": "inconclusive: 3.66 µM [inhibitor, single point]"}
{"smiles": "CC(=O)Nc1ccc(Nc2c3c4c(cccc4n(C)c2=O)C(=O)c2ccccc2-3)cc1", "Potency": "inconclusive: 20.6 µM [inhibitor, single point]"}
{"smiles": "CCc1nc2oc3cc(OC)ccc3c(=O)c2c(=O)n1-c1ccccc1", "Potency": "inconclusive: 7.31 µM [activator, partial curve]"}
{"smiles": "C/C(=N/NC(=O)c1ccc2c(c1)OCO2)c1ccc(Br)s1", "Potency": "inconclusive: 4.11 µM [activator, partial curve]"}
{"smiles": "Cc1cc(-c2nnnn2-c2ccc(F)cc2)no1", "Potency": "inactive"}
{"smiles": "O=C(CCc1nnc(CCc2c[nH]c3ccccc23)o1)NC1CCC1", "Potency": "inconclusive: 20.6 µM [activator, partial curve]"}
{"smiles": "O=C(NCCN1CCc2ccccc2C1)C1CCN(S(=O)(=O)N2CCCCC2)CC1", "Potency": "inactive"}
{"smiles": "CCc1ccc(C2=NNC(=Nc3c(C)n(C)n(-c4ccccc4)c3=O)SC2)cc1", "Potency": "inactive"}
{"smiles": "CCOc1cc(/C=N/NC(=O)CN2CCOCC2)ccc1OCc1ccc(Cl)cc1", "Potency": "inactive"}
{"smiles": "Cc1cccc2c(=O)c(C(=O)NCc3ccc(F)cc3)c[nH]c12", "Potency": "inactive"}
{"smiles": "CCC(Sc1nc2c(c(=O)[nH]1)CCC2)C(=O)Nc1cccc(OC)c1", "note": "(configuration not stated)", "Potency": "inactive"}
{"smiles": "COc1ccc(N2CCN(S(=O)(=O)c3cc(-c4cc(C)no4)ccc3C(C)C)CC2)cc1", "Potency": "active: 7.3 µM"}
{"smiles": "Cc1c(C(=O)NC(C)CCc2ccccc2)cccc1[N+](=O)[O-]", "note": "(configuration not stated)", "Potency": "inconclusive: 0.651 µM [activator, full curve, poor fit]"}
{"smiles": "C=CC[C@@H](CC(=O)NCCO)C(=O)N[C@@H](COC(=O)[C@@H](CC=C)CC(=O)OC(C)(C)C)Cc1ccccc1", "Potency": "inconclusive: 20.6 µM [inhibitor, single point]"}
{"smiles": "CC1CN(C(=O)Nc2ccc3c(c2)OCCO3)CC(C)O1", "note": "(configuration not stated)", "Potency": "inconclusive: 23.1 µM [activator, single point]"}
{"smiles": "O=C(CN1CCCCCCC1)Nc1cc(Cl)cc(Cl)c1", "Potency": "inconclusive: 20.6 µM [inhibitor, partial curve, poor fit]"}
{"smiles": "Cc1ccc(CCNC(=O)C2CCN(S(=O)(=O)c3ccc4c(c3)NC(=O)C(C)S4)CC2)cc1", "note": "(configuration not stated)", "Potency": "inconclusive: 20.6 µM [inhibitor, single point]"}
{"smiles": "CC(OC(=O)c1cc2ccccc2[nH]1)C(=O)N(C)c1ccccc1", "note": "(configuration not stated)", "Potency": "inconclusive: 29.1 µM [inhibitor, single point]"}
{"smiles": "COc1cc(N)c(Cl)cc1C(=O)OCC(=O)NCC1CCCCC1", "Potency": "inconclusive: 29.1 µM [inhibitor, partial curve, poor fit]"}
{"smiles": "O=C(OCC(=O)N1CCCCC1)c1cccs1", "Potency": "inconclusive: 18.3 µM [activator, partial curve]"}
{"smiles": "CN(C)S(=O)(=O)c1cccc(NC(=O)COC(=O)c2cccn2C)c1", "Potency": "inactive"}
{"smiles": "S=C(NCCN1CCOCC1)Nc1ccc(Cl)cc1Cl", "Potency": "inconclusive: 29.1 µM [activator, single point]"}
{"smiles": "O=C(CCCN1CCOCC1)c1ccc2c(c1)OCCO2", "Potency": "inconclusive: 9.2 µM [activator, partial curve]"}
{"smiles": "COc1ccc(-c2noc(CN3CCN(c4ccccc4F)CC3)n2)cc1OC", "Potency": "inconclusive: 8.2 µM [inhibitor, single point]"}
{"smiles": "COc1ccccc1CNC(=O)Nc1cccs1", "Potency": "inconclusive: 20.6 µM [activator, single point]"}
{"smiles": "COc1ccc(C2/C=C\\CN(CC3CC3)CC(=O)N2Cc2ccc(F)cc2)cc1", "note": "(configuration not stated)", "Potency": "inactive"}
{"smiles": "O=C(Nc1c(C(=O)NCc2ccco2)cnn1-c1ccccc1)c1ccc(F)cc1", "Potency": "inconclusive: 1.16 µM [inhibitor, single point]"}
{"smiles": "C=CC[n+]1c(/C=C/c2ccc(OC(C)=O)c(OC)c2)ccc2ccccc21", "Potency": "inconclusive: 23.1 µM [inhibitor, single point]"}
{"smiles": "O=[N+]([O-])c1cc(C(F)(F)F)cc([N+](=O)[O-])c1Sc1n[nH]c(C(F)(F)F)n1", "Potency": "inactive"}
{"smiles": "CN1CCN(CC(=O)Nc2cc(N3CCOCC3)ccc2[N+](=O)[O-])CC1", "Potency": "inconclusive: 20.6 µM [activator, single point]"}
